Source: article PMC3741163
These are yes or no findings as the source states them, for the method shown. Some results given as binding are weak or reduced against the parent protein; the word gives no strength. Each block holds one binder with its values, some of them ahead of it.

Protein sequences, listed by entry. Tags and fused reporters are not part of them.
UniProt P41597: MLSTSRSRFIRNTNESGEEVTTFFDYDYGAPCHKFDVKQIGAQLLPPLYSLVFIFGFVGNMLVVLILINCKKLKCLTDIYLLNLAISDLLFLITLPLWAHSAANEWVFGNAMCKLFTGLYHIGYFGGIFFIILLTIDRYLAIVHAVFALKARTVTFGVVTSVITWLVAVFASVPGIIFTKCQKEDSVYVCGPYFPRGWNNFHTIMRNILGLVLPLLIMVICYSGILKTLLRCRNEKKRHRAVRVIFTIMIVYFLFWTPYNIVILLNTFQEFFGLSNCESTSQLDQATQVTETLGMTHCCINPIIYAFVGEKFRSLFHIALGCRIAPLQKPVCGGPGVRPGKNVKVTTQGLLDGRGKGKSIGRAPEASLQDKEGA
UniProt P51677: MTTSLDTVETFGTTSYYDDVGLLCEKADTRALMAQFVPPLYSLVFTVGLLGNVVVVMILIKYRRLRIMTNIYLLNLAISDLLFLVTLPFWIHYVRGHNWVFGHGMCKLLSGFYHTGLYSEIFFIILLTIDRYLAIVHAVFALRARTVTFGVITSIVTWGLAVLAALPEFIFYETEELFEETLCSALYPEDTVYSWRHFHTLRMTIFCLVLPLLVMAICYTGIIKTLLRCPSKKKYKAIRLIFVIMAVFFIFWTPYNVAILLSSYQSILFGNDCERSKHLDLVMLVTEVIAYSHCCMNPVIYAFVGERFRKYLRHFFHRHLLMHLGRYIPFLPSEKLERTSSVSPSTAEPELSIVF
UniProt P51681: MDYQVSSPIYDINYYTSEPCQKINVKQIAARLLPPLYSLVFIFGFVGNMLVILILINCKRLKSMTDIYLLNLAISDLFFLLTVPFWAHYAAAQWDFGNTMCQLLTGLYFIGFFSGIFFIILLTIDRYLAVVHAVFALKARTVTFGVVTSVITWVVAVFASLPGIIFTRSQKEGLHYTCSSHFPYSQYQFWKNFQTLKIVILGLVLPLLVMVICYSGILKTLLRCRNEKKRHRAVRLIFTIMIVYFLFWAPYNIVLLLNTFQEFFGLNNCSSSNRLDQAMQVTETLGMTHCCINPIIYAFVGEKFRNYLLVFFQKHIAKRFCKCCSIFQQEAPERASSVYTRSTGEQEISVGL

Legend:
[1] = biological target: CCR2 (UniProt P41597); assay: flow cytometry on cells; Alexa 647-CCL18 at 1, 10 or 100 nM on 10^6 L1.2 transfectants or untransfected L1.2 cells, 1 h at 4 °C in FACS buffer (PBS, 0.1% BSA, 0.01% azide); only the binder purified
[2] = biological target: CCR3 (UniProt P51677); assay: as above
[3] = biological target: T1, CCR4 (UniProt P51679); assay: as above
T1 sequence: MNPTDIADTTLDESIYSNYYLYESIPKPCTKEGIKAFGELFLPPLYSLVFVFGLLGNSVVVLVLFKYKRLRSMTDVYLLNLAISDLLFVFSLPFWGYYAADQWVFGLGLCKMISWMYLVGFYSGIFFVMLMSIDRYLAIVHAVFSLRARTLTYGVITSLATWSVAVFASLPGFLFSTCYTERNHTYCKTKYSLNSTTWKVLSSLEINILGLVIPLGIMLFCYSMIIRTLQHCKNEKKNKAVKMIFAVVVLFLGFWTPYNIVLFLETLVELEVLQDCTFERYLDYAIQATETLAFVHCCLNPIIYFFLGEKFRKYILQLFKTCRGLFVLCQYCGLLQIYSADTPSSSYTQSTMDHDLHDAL

[4] = biological target: CCR5 (UniProt P51681); assay: as above
[5] = biological target: CCR3 (UniProt P51677); assay: radioligand binding; data not shown: competition of 44AAGA47-CCL18 for 125I-CCL18 binding to CCR3 in receptor binding studies; only the binder purified
[6] = biological target: CCR3 (UniProt P51677); assay: radioligand binding; equilibrium competition on L1.2/CCR3 transfectants, tracer 0.1 nM 125I-CCL18, 0.1 x10^6 cells/well, competitor 10^-6 to 10^-12 M, room temperature 4 h, filtration; only the binder purified

binding [1]: no binding (tested: 100 nM)
binding [2]: binds
binding [3]: no binding (tested: 100 nM)
binding [4]: no binding (tested: 100 nM)
B1: Alexa 647-CCL18 (ligand, UniProt P55774 21-89)
chain: AQVGTNKELCCLVYTSWQIPQKFIVDYSETSPQCPKPGVILLTKRGRQICADPNKKWVQKYISDLKLNA
modifications: Alexa 647 label (position not given)

binding [5]: binds
binding [6]: binds
B2: ^125I-CCL18 (ligand, UniProt P55774 21-89)
chain: B1 chain
modifications: 125I label (iodinated; residue not stated)
